Data published in PMC8126939, “The TBC1D31/praja2 complex controls primary ciliogenesis through PKA‐directed OFD1 ubiquitylation” (The EMBO Journal, 2021).
Results are given in words; binding and its absence hold for the method and conditions named. Binding calls can cover weak binding; strength is not graded here. For some assays here: Binding seen in cells or lysates may run through a third protein. For some assays here: Where a sequence is shown, tags or fusion partners need not be part of it. Blank lines part the entries; values can stand above or below the molecule they belong to.

Experiments:
[1] = target: T1, flag-praja2 ring mutant (human) (UniProt O43164); test: co-IP; lysates of transfected HEK293 cells (150 mM NaCl, 50 mM Tris-HCl pH 7.5, 1 mM EDTA, 0.5% NP40), overnight with anti-flag antibody or control IgG, immunoblot
T1 sequence: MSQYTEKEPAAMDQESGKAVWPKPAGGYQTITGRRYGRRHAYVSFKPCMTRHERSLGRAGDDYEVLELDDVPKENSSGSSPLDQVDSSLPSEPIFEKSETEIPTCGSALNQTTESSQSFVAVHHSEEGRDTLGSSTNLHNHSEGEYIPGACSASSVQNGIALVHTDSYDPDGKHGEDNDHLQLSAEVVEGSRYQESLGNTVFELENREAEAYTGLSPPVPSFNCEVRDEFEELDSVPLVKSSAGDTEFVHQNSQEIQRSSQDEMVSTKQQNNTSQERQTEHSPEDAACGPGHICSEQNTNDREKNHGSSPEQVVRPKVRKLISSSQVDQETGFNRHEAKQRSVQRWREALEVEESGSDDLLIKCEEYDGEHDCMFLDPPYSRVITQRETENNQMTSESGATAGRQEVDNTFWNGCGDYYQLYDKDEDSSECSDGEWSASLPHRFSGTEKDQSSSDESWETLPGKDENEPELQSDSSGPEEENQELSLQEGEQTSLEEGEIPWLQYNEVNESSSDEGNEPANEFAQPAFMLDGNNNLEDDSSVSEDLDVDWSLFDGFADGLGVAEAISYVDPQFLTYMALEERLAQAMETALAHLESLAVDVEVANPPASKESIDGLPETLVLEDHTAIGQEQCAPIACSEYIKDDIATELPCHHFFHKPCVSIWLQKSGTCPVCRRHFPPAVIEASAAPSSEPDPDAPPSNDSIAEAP

[2] = target: T2, flag-praja2 (human) (UniProt O43164); test: as above
T2 sequence: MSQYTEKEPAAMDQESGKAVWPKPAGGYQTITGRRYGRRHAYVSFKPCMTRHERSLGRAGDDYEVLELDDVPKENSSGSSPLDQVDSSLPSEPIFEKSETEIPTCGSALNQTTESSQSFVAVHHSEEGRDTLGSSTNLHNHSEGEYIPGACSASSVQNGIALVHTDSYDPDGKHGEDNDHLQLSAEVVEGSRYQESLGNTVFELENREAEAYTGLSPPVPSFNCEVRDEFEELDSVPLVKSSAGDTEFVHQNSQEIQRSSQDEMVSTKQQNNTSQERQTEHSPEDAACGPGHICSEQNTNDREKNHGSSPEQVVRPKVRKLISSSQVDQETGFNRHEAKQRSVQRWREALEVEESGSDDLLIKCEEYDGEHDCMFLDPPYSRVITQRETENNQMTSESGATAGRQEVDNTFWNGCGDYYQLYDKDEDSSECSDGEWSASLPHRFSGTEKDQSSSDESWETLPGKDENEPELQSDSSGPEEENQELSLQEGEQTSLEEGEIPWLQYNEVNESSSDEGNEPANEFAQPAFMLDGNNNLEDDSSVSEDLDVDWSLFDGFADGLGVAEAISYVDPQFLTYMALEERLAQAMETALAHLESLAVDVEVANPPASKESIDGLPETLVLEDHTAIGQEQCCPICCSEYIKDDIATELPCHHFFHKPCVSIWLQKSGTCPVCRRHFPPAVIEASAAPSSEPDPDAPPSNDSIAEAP

[3] = target: T3, GST-praja2_(531–631) (human) (UniProt O43164); test: pull-down; GST-fused proteins immobilised on glutathione beads, incubated three hours with cell lysates (0.5% NP40 buffer), washed three times, immunoblot; only the target purified
T3 sequence: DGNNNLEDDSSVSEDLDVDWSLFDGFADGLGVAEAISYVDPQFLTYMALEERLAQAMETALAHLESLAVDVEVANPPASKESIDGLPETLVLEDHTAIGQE

[4] = target: GST-TBC1D31_(940–970) (human) (UniProt Q96DN5); test: as above
[5] = target: C-terminus of praja2 (yeast two-hybrid bait); test: two-hybrid; yeast two-hybrid screening, C-terminus of praja2 as bait, human brain cDNA library

binding [1]: binds
binding [2]: binds
binding [3]: binds
Molecule: GFP-TBC1D31 (from UniProt Q96DN5-3)

binding [4]: binds
B1: flag-praja2 (protein, UniProt O43164 1-708)
chain: MSQYTEKEPAAMDQESGKAVWPKPAGGYQTITGRRYGRRHAYVSFKPCMTRHERSLGRAGDDYEVLELDDVPKENSSGSSPLDQVDSSLPSEPIFEKSETEIPTCGSALNQTTESSQSFVAVHHSEEGRDTLGSSTNLHNHSEGEYIPGACSASSVQNGIALVHTDSYDPDGKHGEDNDHLQLSAEVVEGSRYQESLGNTVFELENREAEAYTGLSPPVPSFNCEVRDEFEELDSVPLVKSSAGDTEFVHQNSQEIQRSSQDEMVSTKQQNNTSQERQTEHSPEDAACGPGHICSEQNTNDREKNHGSSPEQVVRPKVRKLISSSQVDQETGFNRHEAKQRSVQRWREALEVEESGSDDLLIKCEEYDGEHDCMFLDPPYSRVITQRETENNQMTSESGATAGRQEVDNTFWNGCGDYYQLYDKDEDSSECSDGEWSASLPHRFSGTEKDQSSSDESWETLPGKDENEPELQSDSSGPEEENQELSLQEGEQTSLEEGEIPWLQYNEVNESSSDEGNEPANEFAQPAFMLDGNNNLEDDSSVSEDLDVDWSLFDGFADGLGVAEAISYVDPQFLTYMALEERLAQAMETALAHLESLAVDVEVANPPASKESIDGLPETLVLEDHTAIGQEQCCPICCSEYIKDDIATELPCHHFFHKPCVSIWLQKSGTCPVCRRHFPPAVIEASAAPSSEPDPDAPPSNDSIAEAP

binding [5]: binds
Molecule: EEEAKKWKEAEGKEFRLRSAKKASALSDASR (domain or fragment, UniProt Q96DN5-1 940-970) [TBC1D31 C-terminus (residues 940–970), yeast two-hybrid clone]
